Data: US20100021918A1, “METHOD FOR ASSAYING ACTION OF ANTITUMOR AGENT USING SPLICING DEFECTS AS INDEX” (Eisai R&D Management Co., Ltd., priority 2007, published 2010)
The source gives many values for each of these; only a part stands here.

Tested on: human colon carcinoma cell strain WiDr
Assay: Microarray analysis (2), reviewed conditions, intron expression, Table 3
Type: cell-based
Description: WiDr cells were first suspended in RPMI1640 medium (containing 10% FBS, penicillin, and streptomycin) and seeded in a 10 cm dish (2×10^6 cells/dish). After an overnight culture in an incubator with 5% carbon dioxide gas at 37° C., the medium was changed with medium containing 14 nM of (8E,12E,14E)-7-((4-cycloheptylpiperazin-1-yl)carbonyl)oxy-3,6,16,21-tetrahydroxy-6,10,12,16,20-pentamethyl-18,19-epoxytricosa-8,12,14-trien-11-olide or containing vehicle alone. After cultured for additional six hours, TRI reagent (SIGMA) were added to the cells and the cells were harvested. RNA was purified in accordance with the protocol of TRI reagent, followed by further purification with RNeasy (QIAGEN). Absorbance at 260 nm was measured to quantify an amount of RNA. This experiment was repeated three times and RNA samples (n=3) were prepared.
Ribosomal RNA was removed from 1 μg of each total RNA of control cells (n=3) and cells with the treatment (n=3) by using RiboMinus Human/Mouse Transcriptome Isolation Kit (Invitrogen). Single stranded cDNA synthesis, double stranded cDNA synthesis, cRNA synthesis, second single stranded cDNA synthesis, cDNA fragmentation, and cDNA labeling in order were carried out for the total RNA from which ribosomal RNA was removed, by using GeneChip Whole Transcript Sense Target Labeling and Control Reagents (Affymetrix) to make a cDNA probe. The cDNA probe was used for hybridization with Human Exon 1.0 ST Array (Affymetrix). The array was washed and stained, and luminescence intensity was measured by a scanner.
Analysis conditions were reviewed in the data used in Example 3. Genes containing increased introns upon treatment with (8E,12E,14E)-7-((4-cycloheptylpiperazin-1-yl)carbonyl)oxy-3,6,16,21-tetrahydroxy-6,10,12,16,20-pentamethyl-18,19-epoxytricosa-8,12,14-trien-11-olide were identified.
In order to consider the analysis conditions, variations in the data from the samples with identical conditions were studied. […] It turned out that, by analyzing under conditions where the expression level was more than 100 and change in the expression level was more than five times, a probe set with increased expression can be extracted.
Probe sets showing that the normalized change in the level expression of the probe set in the group with the treatment was more than 5 times; the expression level of the probe set and the gene in the group with the treatment were more than 100; and probe set annotation was “extended, full, free”, were picked out. Welch's t-test was conducted with the probe sets extracted for the treated group and the control group to determine a p and q value. A gene containing the probe sets with the q value of less than 5% was determined as a candidate gene with increased expression level of the intron regions (Table 3).
In Table 3, for each gene evaluated, gene name (Gene Name), abbreviated name (Gene Symbol), accession number (Accession), alias name (Synonym), transcription cluster number in Human Exon 1.0 ST Array (Human Exon 1.0 ST Array Transcript Cluster ID), chromosome number (Chromosome), type of strand (Strand), start region (Start), stop region (Stop), and change in expression level (Fold Change) were respectively shown.

Compound: CCC(O)C(C)C1OC1CC(C)(O)/C=C/C=C(\C)C1OC(=O)CC(O)CCC(C)(O)C(OC(=O)N2CCN(C3CCCCCC3)CC2)/C=C/C1C (stereo not shown) [E7107, (8E,12E,14E)-7-((4-cycloheptylpiperazin-1-yl)carbonyl)oxy-3,6,16,21-tetrahydroxy-6,10,12,16,20-pentamethyl-18,19-epoxytricosa-8,12,14-trien-11-olide]
- Fold Change (gene C6orf111 // USP45, intron expression, treated vs control): 6.68
- Fold Change (gene C6orf166, change in expression level, treated vs control): 19.23
- Fold Change (gene C7orf30, intron expression, treated vs control): 7.46
- Fold Change (gene C8orf53, intron expression, treated vs control): 6.60
- Fold Change (gene C8orf76 // ZHX1, change in expression level, treated vs control): 12.17
- Fold Change (gene C10orf18, change in expression level, treated vs control): 12.16
- Fold Change (gene C11orf30, Transcript Cluster ID 3340913): 5.44
- Fold Change (gene C12orf11, Transcript Cluster ID 3448428, intron expression, treated vs control): 10.50
- Fold Change (gene C12orf41, intron expression, treated vs control): 7.00
- Fold Change (gene C12orf52, change in expression level, treated vs control): 6.31
- Fold Change (gene C14orf32, intron expression, treated vs control): 6.53
- Fold Change (gene C14orf129, change in expression level, treated vs control): 6.35
- Fold Change (gene C16orf72, intron expression, treated vs control): 7.28
- Fold Change (gene C16orf80, Transcript Cluster ID 3693511, intron expression, treated vs control): 10.32
- Fold Change (gene C18orf25, intron expression, treated vs control): 6.78
- Fold Change (gene C19orf48, intron expression, treated vs control): 7.17
- Fold Change (gene C20orf11, intron expression, treated vs control): 6.63
- Fold Change (gene C20orf20, change in expression level, treated vs control): 6.49
- Fold Change (gene C20orf24, Transcript Cluster ID 3883971, intron expression, treated vs control): 10.81
- Fold Change (gene C20orf72, intron expression, treated vs control): 6.94
- Fold Change (gene C20orf77, change in expression level, treated vs control): 10.91
- Fold Change (gene CAB39, change in expression level, treated vs control): 13.97
- Fold Change (gene CABLES1, change in expression level, treated vs control): 12.37
- Fold Change (gene CALM2, change in expression level, treated vs control): 13.54
- Fold Change (gene CAMSAP1, intron expression, treated vs control): 6.81
- Fold Change (gene CAND1, change in expression level, treated vs control): 6.32
- Fold Change (gene CANT1, change in expression level, treated vs control): 11.68
- Fold Change (gene CAPN2, Transcript Cluster ID 2382117): 5.08
- Fold Change (gene CASC3, intron expression, treated vs control): 6.82
- Fold Change (gene CBFB, Transcript Cluster ID 3665116): 5.30
- Fold Change (gene CCDC47, intron expression, treated vs control): 6.84
- Fold Change (gene CCNB1, change in expression level, treated vs control): 11.03
- Fold Change (gene CCND1, change in expression level, treated vs control): 10.91
- Fold Change (gene CCNL1, Transcript Cluster ID 2702307, intron expression, treated vs control): 9.60
- Fold Change (gene CCNL2 // AURKAIP1, Transcript Cluster ID 2391532 (chr1), intron expression, treated vs control): 8.96
- Fold Change (gene CCNL2 // AURKAIP1, Transcript Cluster ID 4041923 (chr1_random), intron expression, treated vs control): 8.99
- Fold Change (gene CCNT1, Transcript Cluster ID 3453218): 5.18
- Fold Change (gene CCT2, intron expression, treated vs control): 6.62
- Fold Change (gene CD59, intron expression, treated vs control): 6.65
- Fold Change (gene CD151 // FKBP9L, Transcript Cluster ID 3316344): 5.23
- Fold Change (gene CDC20, change in expression level, treated vs control): 18.22
- Fold Change (gene CDCA2, Transcript Cluster ID 3090697): 5.28
- Fold Change (gene CDCA4, change in expression level, treated vs control): 20.39
- Fold Change (gene CDR2, Transcript Cluster ID 3684782): 5.42
- Fold Change (gene CDYL, Transcript Cluster ID 2892979): 5.03
- Fold Change (gene CENPL, Transcript Cluster ID 2444451, intron expression, treated vs control): 10.28
- Fold Change (gene CEP72, Transcript Cluster ID 2798777): 5.43
- Fold Change (gene CFL1, Transcript Cluster ID 3377886, intron expression, treated vs control): 9.72
- Fold Change (gene CHD2, intron expression, treated vs control): 6.86
- Fold Change (gene CHERP // CRSP7, Transcript Cluster ID 3853942): 5.06
- Fold Change (gene CHMP4B, intron expression, treated vs control): 6.74
- Fold Change (gene CIRH1A, Transcript Cluster ID 3666566, intron expression, treated vs control): 8.98
- Fold Change (gene CKAP5, Transcript Cluster ID 3371719, intron expression, treated vs control): 9.90
- Fold Change (gene CKS2, change in expression level, treated vs control): 6.01
- Fold Change (gene CLINT1, change in expression level, treated vs control): 20.51
- Fold Change (gene CMIP, Transcript Cluster ID 3670772): 5.42
- Fold Change (gene CNBP, change in expression level, treated vs control): 16.43
- Fold Change (gene COG1, intron expression, treated vs control): 6.58
- Fold Change (gene COPS2, change in expression level, treated vs control): 12.73
- Fold Change (gene COPS7B, change in expression level, treated vs control): 6.06
- Fold Change (gene CORO1C, Transcript Cluster ID 3470549, intron expression, treated vs control): 10.27
- Fold Change (gene COX4NB, change in expression level, treated vs control): 6.21
- Fold Change (gene CSDA, intron expression, treated vs control): 6.51
- Fold Change (gene CSDE1 // NRAS, change in expression level, treated vs control): 6.09
- Fold Change (gene CSNK1D, intron expression, treated vs control): 6.62
- Fold Change (gene CSTB, change in expression level, treated vs control): 6.28
- Fold Change (gene CTDP1, intron expression, treated vs control): 6.54
- Fold Change (gene CTDSPL2, change in expression level, treated vs control): 20.40
- Fold Change (gene CTR9 // TRMU, change in expression level, treated vs control): 13.68
- Fold Change (gene CUGBP1, intron expression, treated vs control): 6.83
- Fold Change (gene CUL1, change in expression level, treated vs control): 6.41
- Fold Change (gene CUL3, intron expression, treated vs control): 6.78
- Fold Change (gene CXorf40A // CXorf40B, change in expression level, treated vs control): 6.08
- Fold Change (gene CYP1B1, intron expression, treated vs control): 7.08
- Fold Change (gene DCBLD2, intron expression, treated vs control): 7.42
- Fold Change (gene DCP1A, change in expression level, treated vs control): 11.27
- Fold Change (gene DCTN5, intron expression, treated vs control): 6.67
- Fold Change (gene DCUN1D5, change in expression level, treated vs control): 11.81
- Fold Change (gene DDEF1, intron expression, treated vs control): 6.85
- Fold Change (gene DDEF2, change in expression level, treated vs control): 18.43
- Fold Change (gene DDX3X, change in expression level, treated vs control): 14.39
- Fold Change (gene DDX5, intron expression, treated vs control): 6.62
- Fold Change (gene DDX10, change in expression level, treated vs control): 6.45
- Fold Change (gene DDX21, change in expression level, treated vs control): 12.56
- Fold Change (gene DDX27, Transcript Cluster ID 3888217, intron expression, treated vs control): 9.83
- Fold Change (gene DDX31, change in expression level, treated vs control): 12.21
- Fold Change (gene DDX42, Transcript Cluster ID 3730899, intron expression, treated vs control): 9.05
- Fold Change (gene DDX47 // APOLD1, Transcript Cluster ID 3405531, intron expression, treated vs control): 9.51
- Fold Change (gene DDX50, intron expression, treated vs control): 6.58
- Fold Change (gene DHPS, Transcript Cluster ID 3851603): 5.37
- Fold Change (gene DHX15, change in expression level, treated vs control): 6.22
- Fold Change (gene DHX36, intron expression, treated vs control): 7.33
- Fold Change (gene DIABLO, change in expression level, treated vs control): 11.73
- Fold Change (gene DKC1, Transcript Cluster ID 3996667, intron expression, treated vs control): 9.04
- Fold Change (gene DKK1, Transcript Cluster ID 3247172, intron expression, treated vs control): 10.89
- Fold Change (gene DNAJA3, Transcript Cluster ID 3646164, intron expression, treated vs control): 9.23
- Fold Change (gene DNAJA5, change in expression level, treated vs control): 6.03
- Fold Change (gene DNAJB1, change in expression level, treated vs control): 10.94
- Fold Change (gene DNAPTP6, change in expression level, treated vs control): 6.15
- Fold Change (gene DNMBP, change in expression level, treated vs control): 6.28
- Fold Change (gene DOT1L, Transcript Cluster ID 3816264, intron expression, treated vs control): 10.70
- Fold Change (gene DULLARD, Transcript Cluster ID 3743501, intron expression, treated vs control): 10.70
- Fold Change (gene DUS3L, Transcript Cluster ID 3847420, intron expression, treated vs control): 9.80
